{
  "sequences": {"note": "Protein sequences, listed by entry. Tags and fused reporters are not part of them.", "UniProt Q03431, whole entry, looked up": "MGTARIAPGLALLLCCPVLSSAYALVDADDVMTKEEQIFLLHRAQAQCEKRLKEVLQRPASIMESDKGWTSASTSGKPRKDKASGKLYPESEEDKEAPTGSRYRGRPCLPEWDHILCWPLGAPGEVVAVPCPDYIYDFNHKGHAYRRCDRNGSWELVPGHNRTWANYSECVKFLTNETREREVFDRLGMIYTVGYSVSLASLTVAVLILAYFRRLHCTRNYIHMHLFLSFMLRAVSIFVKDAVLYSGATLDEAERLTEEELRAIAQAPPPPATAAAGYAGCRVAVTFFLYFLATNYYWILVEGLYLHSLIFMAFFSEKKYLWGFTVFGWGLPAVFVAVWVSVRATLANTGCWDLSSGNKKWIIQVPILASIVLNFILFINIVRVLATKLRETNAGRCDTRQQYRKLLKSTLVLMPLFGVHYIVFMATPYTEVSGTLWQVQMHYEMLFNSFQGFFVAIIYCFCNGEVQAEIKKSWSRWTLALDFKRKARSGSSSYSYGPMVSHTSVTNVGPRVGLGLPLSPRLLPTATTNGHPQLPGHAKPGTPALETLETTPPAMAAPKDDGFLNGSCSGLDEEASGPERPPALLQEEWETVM"},
  "source": "PubChem BioAssay AID743266",
  "about": "(National Center for Advancing Translational Sciences (NCATS), 2014)",
  "note": "The whole screen tested about 410,000 compounds, of which about 310 (0.076%) were called active. The inconclusive results got no clear call from the source; some entries with a clear call stand among them for comparison. Calls come from the whole dose curve; as a rule, active = well fitted activation curve with a large enough effect; inconclusive = small, poorly fitted or top-dose-only effect, or another doubt; inactive = no such curve, though single readings can be large or run the other way. Where the call is inconclusive, the potency comes from a doubtful curve fit. Potency is the fitted concentration of half-maximal effect.",
  "data": [
    {"target": "Parathyroid hormone/parathyroid hormone-related peptide receptor (Homo sapiens) (UniProt Q03431)", "experiment": "qHTS for PTHR1 Agonists: Primary Screen; note: nearly all actives have a fitted effect of over 55% in size", "conditions": "HEK293 GP2 PTHR1 cells, GloSensor cAMP luminescence, 1 h; activation: at 115 µM (top of the series) unless noted; series mostly up to 115 µM", "procedure,_shortened": "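HEK-293-derived GP2 cells expressing PTHR1 and a GloSensor cAMP reporter, 3,000/well, plated overnight, given luciferin plus IBMX (each 0.5 mM as added) for 1 h at 37 °C, then compound for 1 h at 37 °C. Luminescence was read after 15 min at room temperature.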", "values": [
      {"smiles": "COc1cc(/C=C/C(=O)O)cc(S(=O)(=O)NCC2CCCO2)c1OC", "note": "(stereo not drawn)", "Potency": "inconclusive: 3.55 µM [activator, full curve, poor fit]"},
      {"smiles": "S=c1[nH]cc(-c2ccccc2)[nH]1", "outcome": "inactive"},
      {"smiles": "CC(C(=O)NN)c1ccc([N+](=O)[O-])cc1", "note": "(stereo not drawn)", "Potency": "inconclusive: 39.8 µM [activator, partial curve, poor fit]"},
      {"smiles": "Cn1c(C(=O)NCCN2CCOCC2)cc2sccc21", "outcome": "inactive"},
      {"smiles": "CN(C)c1ccc(C(C(=O)NC2CCCC2)N(C(=O)c2ccco2)C2CC2)cc1", "note": "(stereo not drawn)", "Potency": "inconclusive: 126 µM [activator, single point]"},
      {"smiles": "COc1ccc(C(=O)Oc2c(CN3CCOCC3)cc(Cl)c3cccnc23)cc1", "outcome": "inactive [at 57.5 µM]"},
      {"smiles": "CCN1CCN(CCn2c(=S)[nH]c3ccccc3c2=O)CC1", "Potency": "inconclusive: 44.7 µM [activator, single point]"},
      {"smiles": "CN(C)CCCSc1nc2ccccc2s1", "Potency": "inconclusive: 15.8 µM [activator, full curve]"},
      {"smiles": "Cc1cccc([C@@H]2[C@@H]3C(=O)N(Cc4ccccc4)C(=O)[C@@H]3[C@]3(Cc4ccccc4)C(=O)N(c4cccc(F)c4)C(=O)N23)c1", "outcome": "inactive"},
      {"smiles": "CCOC(=O)Cn1c(=O)n(CC2CCCO2)c2nc(-c3cccc(C)c3)nc(C(N)=O)c21", "note": "(stereo not drawn)", "outcome": "inactive"},
      {"smiles": "CCn1c(C)c(C)c2cc(C(=O)NCCCN3CCCCC3)ccc21", "Potency": "inconclusive: 28.2 µM [activator, single point]"},
      {"smiles": "O=C(COC(=O)c1cccnc1Nc1ccccc1F)NCCN1C(=O)CSC1=O", "activation": "inactive: -21.8% [at 57.5 µM]"},
      {"smiles": "O=C(NC1CCCCC1)c1cccc(Cn2cc(Cl)cn2)c1", "outcome": "inactive"},
      {"smiles": "CCOC(=O)C(O)C1CCc2c([nH]c3ccc(C)cc23)C1=O", "note": "(stereo not drawn)", "activation": "inconclusive: 36.5% [activator]"},
      {"smiles": "CCCNc1nc(C)cc(-c2cc(C(=O)NC3CCCC3)on2)n1", "Potency": "inconclusive: 35.5 µM [activator, partial curve, poor fit]"},
      {"smiles": "CCOc1ccccc1NC(=O)Cn1c(=O)n(CCCC(=O)NCc2ccc(C)cc2)c(=O)c2ccccc21", "activation": "inconclusive: -34.2% [activator]"},
      {"smiles": "CC(O)(CS(=O)(=O)Cc1ccccc1)C(=O)Nc1ccc(C(F)(F)F)cc1", "note": "(stereo not drawn)", "activation": "inconclusive: 31.5% [activator] [at 57.5 µM]"},
      {"smiles": "COc1ccc(-c2sc3ccc(OC)cc3c2C#Cc2cncn2C)cc1", "Potency": "inconclusive: 112 µM [activator, single point]"},
      {"smiles": "Cc1cccc2sc(N(Cc3cccnc3)C(=O)c3ccco3)nc12", "outcome": "inactive"},
      {"smiles": "Cc1ccccc1/C=C/C12NC(=O)CN1c1ccccc1C2(C)C", "note": "(stereo not drawn)", "activation": "inactive: -14%"},
      {"smiles": "O=C(NCCc1ccc(Cl)cc1)C12CC3CC(CC(O)(C3)C1)C2", "outcome": "inactive"},
      {"smiles": "COc1ccc(NC(=O)Nc2ccccc2OC)cc1", "activation": "inactive: -44.5% [at 57.5 µM]"},
      {"smiles": "CCOc1cc(S(=O)(=O)NCCc2ccc(OC)c(OC)c2)c(OCC)cc1-n1cnnn1", "outcome": "inactive"},
      {"smiles": "Cc1ccnc(Nc2nc3ccccc3o2)n1", "activation": "inactive: -37.9%"},
      {"smiles": "Cc1cc(C)cc(CC(Cc2nc3ccccc3[nH]2)c2nc3ccccc3[nH]2)c1", "note": "(stereo not drawn)", "activation": "inconclusive: -74.1% [activator] [at 57.5 µM]"},
      {"smiles": "CN1CCc2c(sc3nc(SCC(=O)N4CCCCC4)n(-c4ccccc4)c(=O)c23)C1", "Potency": "inconclusive: 50.1 µM [activator, single point]"},
      {"smiles": "CCOc1ccc(CCN2C(=S)N([C@@H](Cc3ccc(O)cc3)CN3CCC[C@@H]3CN3C(=S)NC[C@@H]3CC(C)C)C[C@@H]2CC(C)C)cc1", "Potency": "inconclusive: 1.78 µM [activator, full curve]"},
      {"smiles": "CC(/C=C/c1ccccc1)=N\\Nc1nc(-c2ccccc2)cs1", "Potency": "inconclusive: 39.8 µM [activator, single point]"},
      {"smiles": "COc1ccc(Cn2c(C)nnc2-c2cnn(C)c2N)cc1", "activation": "inconclusive: 33% [activator]"},
      {"smiles": "CN(C)C(=O)CCN1CCOCC1", "Potency": "inconclusive: 4.47 µM [activator, full curve, poor fit]"},
      {"smiles": "O=C(Oc1oc(-c2ccco2)nc1C=Nc1ccccc1)c1ccco1", "activation": "inconclusive: -31% [activator] [at 57.5 µM]"},
      {"smiles": "CSc1ccccc1NC(=O)C1=COCCO1", "Potency": "inconclusive: 158 µM [activator, single point]"},
      {"smiles": "COc1ccc(C2N=C(N)Nc3nc4ccccc4n32)c(OC)c1OC", "note": "(stereo not drawn)", "Potency": "inconclusive: 158 µM [activator, single point]"},
      {"smiles": "Cn1c(Cn2c(=O)sc3ccccc32)nnc1SCC(=O)NC1CCCC1", "activation": "inactive: 5.11%"},
      {"smiles": "C/C=C/c1ccc(OCC(=O)OCC)c(OC)c1", "activation": "inconclusive: -50.4% [activator]"},
      {"smiles": "O=C1c2ccccc2C(=O)N1CCCCc1cn(C[C@H]2CC[C@@H]([C@@H]3CC[C@H](Cn4cc(CCCCN5C(=O)c6ccccc6C5=O)nn4)O3)O2)nn1", "activation": "inactive: -30.1%"},
      {"smiles": "CCC(C)(C)NC(=O)C(c1ccc(F)cc1)N(Cc1ccco1)C(=O)c1snc(C(N)=O)c1N", "note": "(stereo not drawn)", "Potency": "inconclusive: 50.1 µM [activator, single point]"},
      {"smiles": "COCCNC(=O)Cn1cnc2sc(C)c(S(=O)(=O)N3CCN(c4ccccc4OC)CC3)c2c1=O", "Potency": "inconclusive: 89.1 µM [activator, single point]"},
      {"smiles": "NC(=O)Cc1ccc(C(=O)c2ccccc2)s1", "Potency": "inconclusive: 14.1 µM [activator, partial curve, poor fit]"},
      {"smiles": "O=C(COC(=O)c1cccc(O)c1)Nc1ccc(S(=O)(=O)N2CCOCC2)cc1", "activation": "inactive: -20.6%"},
      {"smiles": "Cc1cc(=O)oc(C)c1C(=O)NCCN1CCOCC1", "Potency": "inconclusive: 44.7 µM [activator, single point]"},
      {"smiles": "Clc1ccc(-c2ccc(-c3nn4c(-c5ccco5)nnc4s3)o2)cc1", "Potency": "inconclusive: 1.78 µM [activator, partial curve, poor fit]"},
      {"smiles": "Cc1cccc(N2CCN(CC3CCCCC3)CC2)c1C", "activation": "inconclusive: 49.7% [activator]"},
      {"smiles": "COc1ccc(-c2n(CC(=O)OC3CC(C)CCC3C(C)C)c3ccccc3[n+]2C)cc1", "note": "(stereo not drawn)", "activation": "inactive: -45.3%"},
      {"smiles": "COc1ccc(-c2csc(NC(=S)NC(=O)/C=C/c3ccco3)n2)cc1OC", "activation": "inactive: -9.08%"},
      {"smiles": "CC1=C(C(N)=O)C(c2ccc(Cl)c(Cl)c2)n2ncnc2N1", "note": "(stereo not drawn)", "activation": "inactive: -18.3%"},
      {"smiles": "CCOc1ccc(CCNC(=O)c2ccc3c(=O)[nH]c4c(C(=O)NC(C)C)sc(=S)n4c3c2)cc1", "activation": "inactive: -41.4%"},
      {"smiles": "O=C(NCCOCc1ccccc1)C(c1ccccc1)c1ccccc1", "activation": "inconclusive: -35.6% [activator]"},
      {"smiles": "CCCOC(=O)c1c(NC(=O)/C=C/c2cnn(C)c2C)sc(C(=O)OCC)c1C", "outcome": "inactive"},
      {"smiles": "O=C(Cc1cccs1)NCc1ccccc1F", "activation": "inactive: -12.9% [at 57.5 µM]"},
      {"smiles": "COc1ccc(NC(=O)Cn2nnc(C(=O)NCc3ccco3)c2N)c(OC)c1", "Potency": "inconclusive: 39.8 µM [activator, single point]"},
      {"smiles": "O=C(O)CSCc1nc2cccnc2n1C1CCCCC1", "Potency": "inconclusive: 22.4 µM [activator, partial curve, poor fit]"},
      {"smiles": "CCOc1cc(C(Nc2cc(C)ccn2)c2ccc3cccnc3c2O)ccc1OC", "note": "(stereo not drawn)", "activation": "inconclusive: 30.9% [activator]"},
      {"smiles": "COc1cccc(N(C(C)=O)c2nc(C)cc(C)c2C#N)c1", "Potency": "inconclusive: 39.8 µM [activator, single point]"},
      {"smiles": "O=C1CCC/C(=N/NC(=O)c2cc(NS(=O)(=O)c3cccs3)cc(NS(=O)(=O)c3cccs3)c2)C1", "Potency": "inconclusive: 126 µM [activator, single point]"},
      {"smiles": "Cn1cnc2cc(NCc3ccc(Cl)cc3)ccc21", "activation": "inactive: -13.5%"},
      {"smiles": "C=C(C)CSc1nc2sc3c(c2c(=O)n1-c1ccccc1)CCN(C)C3", "Potency": "inconclusive: 56.2 µM [activator, partial curve, poor fit]"},
      {"smiles": "CCN(CC(=O)Nc1ccc(Br)cc1)CC(=O)Nc1cc(C)on1", "Potency": "inconclusive: 141 µM [activator, single point]"},
      {"smiles": "CCc1cc2c(cc3c(=O)n(CC(=O)N4CCC(C)CC4)nc(CC)n32)s1", "activation": "inactive: 2.4%"},
      {"smiles": "CC(CC(=O)Nc1ccc2c(c1)c(=O)n(C)n2-c1ccccc1F)c1ccccc1", "note": "(stereo not drawn)", "outcome": "inactive"},
      {"smiles": "COc1ccc(/C=N/NC(=O)C(=O)/C=C2\\NC3(CCCC3)Cc3ccccc32)cc1", "activation": "inactive: -14.5%"},
      {"smiles": "Cc1ccc(NC(=O)CSc2nc3ccc(NC(=O)c4cccs4)cc3s2)c(C)c1", "activation": "inconclusive: 32.2% [activator]"},
      {"smiles": "COc1cccc(Cn2c(=O)n(-c3cccc(Cl)c3C)c(=O)c3c4c(sc32)CN(C(C)=O)CC4)c1", "activation": "inactive: -8.32%"},
      {"smiles": "Cc1ccc(S(=O)(=O)N2CCN(CC(=O)NC3CCCc4ccccc43)CC2)c(C)c1", "note": "(stereo not drawn)", "Potency": "inconclusive: 56.2 µM [activator, single point]"},
      {"smiles": "COc1cc(/C=C2\\SC(=O)N(c3ccc(Cl)cc3)C2=O)cc([N+](=O)[O-])c1O", "activation": "inactive: -7.59%"},
      {"smiles": "CCOc1cc(/C=C2\\NC(=S)N(C)C2=O)ccc1OCc1ccc(C(=O)O)cc1", "activation": "inactive: -30.7%"},
      {"smiles": "CC(=O)c1cccc(NC(=O)Cn2c(SCC(=O)Nc3ccc(F)cc3)nc3ccccc32)c1", "activation": "inactive: -66.2%"},
      {"smiles": "N#Cc1ccc(CSC2=NCCN2)cc1", "Potency": "inconclusive: 100 µM [activator, partial curve, poor fit]"},
      {"smiles": "COc1cccc(CNC(=O)CN(C)S(=O)(=O)c2cnc[nH]2)c1", "Potency": "inconclusive: 14.1 µM [activator, partial curve, poor fit]"},
      {"smiles": "CC1=Nc2cc(C(=O)N3CCCC3)ccc2Sc2c(C)ccc(C)c21", "activation": "inconclusive: -59.7% [activator]"},
      {"smiles": "Cc1cc(Cl)c(C)c(S(=O)(=O)Oc2ccccc2NC(=O)CCC(=O)O)c1Cl", "activation": "inconclusive: -35.1% [activator]"},
      {"smiles": "COCCCNC(=O)CSc1nc(-c2cccc(F)c2)[nH]c1-c1ccccc1", "Potency": "inconclusive: 100 µM [activator, partial curve, poor fit]"},
      {"smiles": "O=C(c1ccccc1)N1CCN(CC#Cc2ccccc2)CC1", "activation": "inactive: -46.6%"}
    ]}
  ]
}
